Assay results reported in the supplement of paper PMC12889115.
The list shows a part of the results. These are raw signals, not scaled to a control.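 First-pass screen: polymyxin B was added at a level that permeabilizes the Salmonella outer membrane while sparing the inner membrane. DMSO wells, with and without polymyxin B, defined maximum growth. Because plates differed from one another, each plate's data were ranked separately and the compounds with the lowest OD600 were carried forward as hits.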

Test system: Salmonella enterica serovar Typhimurium SL1344
Test: bacterial growth OD600 after 18 h with compound and polymyxin B; higher = more bacterial growth (less inhibition)
Conditions: 50 µM, Mueller-Hinton broth

Structure (SMILES)	bacterial growth OD600 (polymyxin B 1 µg/mL)	bacterial growth OD600 (polymyxin B 0.75 µg/mL)
O=C(Nc1cccc(-n2cccn2)c1)C1CCCN1C(=O)Cn1cccn1 (stereo unspecified)	1.18	–
COc1cc(CC2(CCC(=O)N(Cc3c(C)nn(C)c3C)C(C)C)CCC(=O)N2)ccc1F (stereo unspecified)	–	0.822
O=C(Nc1cccc(-n2cccn2)c1)C1CCCN1C(=O)C1CCC1 (stereo unspecified)	0.938	–
Cc1ccccc1Cn1cc(C(=O)N(C)Cc2ccccc2Cl)nn1	0.011	–
COc1ccc(C(=O)NC(C)CCCC(C)(C)O)cc1OC1CCN(C(C)=O)CC1 (stereo unspecified)	0.982	–
COc1cccc(CC2(CO)CCCN(Cc3ccc(F)c(OC)c3)C2)c1 (stereo unspecified)	0.852	–
CC[C@H](C)[C@H](NC1CCN(c2nc(C)c3cc(OC)ccc3n2)CC1)C(=O)OC	–	0.01
C=C(C)CNc1ccc(C(=O)N2CCCN(c3ncccn3)CC2)cn1	0.871	–
O=C(Nc1ccccc1Oc1cccnc1)C1CCCN(CCc2ccccc2)C1 (stereo unspecified)	1.05	–
COCCN1CC(C(=O)NCCc2ccccc2C)CCC1=O (stereo unspecified)	0.901	–
Cc1nc(-c2ccncc2)ncc1C(C)NC1CCSCC1 (stereo unspecified)	0.942	–
CC(C)CN1CCC(C2CCN(C(=O)C3(C(F)(F)F)CC3)C2)CC1 (stereo unspecified)	–	0.844
COc1ccc(-n2cc(CN(C)C3CCOCC3)c(-c3cccc(F)c3)n2)cc1	0.915	–
Cc1cccc(-c2cnc(-c3ccncc3)nc2C2CCN(C(=O)c3ccc4[nH]ccc4c3)CC2)c1	–	0.083
Cc1ccn(CC(=O)N2CCC(n3nccc3NC(=O)C(C)(C)C)CC2)n1	1.07	–
COc1cccc(CNC2CCC2)c1OCC(O)CN1CCOCC1 (stereo unspecified)	1.12	–

2 entries from above, as a markdown table:

| Structure (SMILES) | bacterial growth OD600 (polymyxin B 1 µg/mL) | bacterial growth OD600 (polymyxin B 0.75 µg/mL) |
| --- | --- | --- |
| COc1cccc(CC2(CO)CCCN(Cc3ccc(F)c(OC)c3)C2)c1 (stereo unspecified) | 0.852 | – |
| CC[C@H](C)[C@H](NC1CCN(c2nc(C)c3cc(OC)ccc3n2)CC1)C(=O)OC | – | 0.01 |

Later entries:

Structure (SMILES)	bacterial growth OD600 (polymyxin B 1 µg/mL)	bacterial growth OD600 (polymyxin B 0.75 µg/mL)
COc1ccc(CC2(CCC(=O)NCc3ccccc3C(F)(F)F)CCC(=O)N2)c(F)c1 (stereo unspecified)	–	0.75
O=C1CC[C@@H](C(=O)NCc2cccnc2Oc2ccccc2)N1	0.882	–
CC#CCN1C(=O)NC(CCCc2ccccc2)(C2CCN(Cc3ccccc3O)CC2)C1=O (stereo unspecified)	–	0.785
CCOC(=O)C1(Cc2cccc(OC)c2)CCN(Cc2ccc(O)c(Cl)c2)CC1	0.555	–
O=C(Cc1cccs1)N1CCCC(c2nc(-c3cccnc3)ncc2-c2ccccc2F)C1 (stereo unspecified)	–	0.003
COc1ccc(CC2(CCC(=O)NCC3OCCc4ccccc43)CCC(=O)N2)c(F)c1 (stereo unspecified)	–	0.866
O=C(c1csc2nc(-c3ccccc3)cn12)N1CCCCCC1	1.18	–
CCOC(=O)CCNC(=O)N1CCCC(CNS(=O)(=O)Cc2ccccc2)C1 (stereo unspecified)	0.836	–
Cn1ccnc1C(=O)C1CCCN(C(=O)c2cn(CCC3CCCCC3)nn2)C1 (stereo unspecified)	1.28	–
COc1cc(CN2CCc3c(C(=O)NC(C)c4ccco4)c(OC)cc(=O)n3CC2)cc2c1OCO2 (stereo unspecified)	–	0.79
O=C(C1CC=CCC1)N1CCC(C2(c3cccnc3)NC(=O)N(CCc3cccs3)C2=O)CC1 (stereo unspecified)	–	0.817
CN(C)S(=O)(=O)N1CCC(C2CCN(c3ncccn3)CC2)C1 (stereo unspecified)	–	0.922
Cc1cc(F)ccc1NC(=O)CCC1CCCN(Cc2nccn2C)C1 (stereo unspecified)	1.08	–
O=C(Nc1ccnn1C1CCN(C(=O)CN2CCCCC2)CC1)c1ccc2c(c1)OCO2	–	0.908
O=C(c1ccncc1)N1CCC(C2CCN(c3ncccn3)CC2)C1 (stereo unspecified)	–	0.823
